{"source": "PubChem BioAssay AID540256", "about": "(National Center for Advancing Translational Sciences (NCATS), 2011)", "note": "The campaign covered roughly 300,000 compounds. About 3,700 (1.2%) were called active. This list was built around the results that the source calls inconclusive (neither active nor inactive); the mix of calls is not that of the screen. Calls come from the whole dose curve; tested in HEK293 cells. Potencies beside an inconclusive call are fits to weak or partial responses and may not hold up. % is set by controls: 0 for no effect and ±100 for the full control effect; potency is the fitted concentration of half-maximal effect."}
{"test": "qHTS for Inhibitors of binding or entry into cells for Lassa Virus; note: nearly all actives have a fitted effect of over 50% in size", "details": "Lassa virus pseudotype entry inhibition, cell reporter; activity change, negative = inhibition: at 37.9 µM (top of the series) unless noted"}
{"smiles": "CCC1(C2=NCCN2)Cc2ccccc2O1", "note": "(stereo not drawn)", "Potency": "inconclusive: 11.6 µM [activator, single point]"}
{"smiles": "COc1ccccc1CC(=O)Nc1ccccc1O", "activity change, negative = inhibition": "inactive: -2%"}
{"smiles": "O=C(NN1C(=O)c2ccccc2NC1c1ccc([N+](=O)[O-])o1)c1ccc([N+](=O)[O-])cc1", "note": "(stereo not drawn)", "Potency": "inconclusive: 10 µM [inhibitor, partial curve, poor fit]"}
{"smiles": "CCOC(=O)c1cc(CNC(=O)c2c(C)oc3c2CCCC3)c(C)o1", "Potency": "inconclusive: 35.5 µM [inhibitor, single point]"}
{"smiles": "CC(C)(C)SCCNC(=O)CN(c1ccccc1)S(=O)(=O)c1ccc(F)cc1", "activity change, negative = inhibition": "inactive: 1.26%"}
{"smiles": "O=C(N/N=C/c1cc(Br)cc(Br)c1O)c1cccc(S(=O)(=O)N2CCOCC2)c1", "Potency": "inconclusive: 6.31 µM [inhibitor, single point]"}
{"smiles": "C/C(=N\\NC(=S)Nc1ccc(C)cc1)c1cc2ccccc2o1", "Potency": "active: 6.51 µM"}
{"smiles": "O=C(NNC(=O)c1ccc2ncccc2c1)c1ccc(Cl)cc1", "activity change, negative = inhibition": "inactive: -27.2%"}
{"smiles": "NC(=O)NC(=O)Nc1ccccc1Cl", "activity change, negative = inhibition": "inactive: -15.3%"}
{"smiles": "CC1(C)CN(Cc2ccccc2)C(=O)[C@@H]1CC(=O)Nc1ccccc1", "Potency": "inconclusive: 1.25 µM [inhibitor, full curve, poor fit]"}
{"smiles": "CCOC(=O)c1sc(N)c(C(=O)OCC)c1C", "Potency": "inconclusive: 3.16 µM [inhibitor, single point]"}
{"smiles": "Cc1ccc2nc(NC(=O)C3CCN(S(=O)(=O)c4cccs4)CC3)sc2c1", "Potency": "active: 10.3 µM"}
{"smiles": "CCc1sc(Nc2ccc(C)cc2Br)nc1-c1cc2cccc(OC)c2oc1=O", "Potency": "inconclusive: 3.55 µM [inhibitor, partial curve, poor fit]"}
{"smiles": "CC(=O)NCCNc1nc2c(-c3ccc(C)cc3)nnn2c2ccccc12", "activity change, negative = inhibition": "inactive: 11.2% [at 46.1 µM]"}
{"smiles": "CCOC(=O)CSc1nc2c(sc3ccccc32)c(=O)n1Cc1ccc(C)cc1", "Potency": "inconclusive: 28.2 µM [activator, partial curve, poor fit]"}
{"smiles": "CCCN1C(=O)SC(CC(=O)Nc2ccc(Br)cc2)C1=O", "note": "(stereo not drawn)", "Potency": "inconclusive: 3.55 µM [inhibitor, single point]"}
{"smiles": "Cc1occc1-c1nnc(SCC(=O)Nc2ccccc2N2CCCCC2)n1C", "Potency": "inconclusive: 35.5 µM [inhibitor, single point]"}
{"smiles": "CN(C(=O)COC(=O)Cc1c(Cl)cccc1Cl)c1c(N)n(Cc2ccccc2)c(=O)[nH]c1=O", "Potency": "inconclusive: 1.58 µM [inhibitor, partial curve, poor fit]"}
{"smiles": "CCC(=O)Nc1ccccc1-c1nc2ccccc2n(CC(=O)c2ccc(C)c(C)c2)c1=O", "activity change, negative = inhibition": "inactive: 11.1% [at 46.1 µM]"}
{"smiles": "COc1ccc(C(=O)Nc2nnc(-c3ccc(F)cc3)s2)c(OC)c1", "activity change, negative = inhibition": "inactive: 29.7% [at 46.1 µM]"}
{"smiles": "O=c1oc2ccccc2nc1/C=C(O)/C=C\\c1ccccc1", "activity change, negative = inhibition": "inactive: -28.1%"}
{"smiles": "O=S(=O)(Nc1cccc(-c2ccc(N3CCCCCC3)nn2)c1)c1ccccc1F", "Potency": "inconclusive: 3.55 µM [activator, partial curve]"}
{"smiles": "O=C(OCC(=O)c1c[nH]c2ccccc12)c1cc2ccccc2cc1O", "Potency": "inconclusive: 23.1 µM [inhibitor, partial curve, poor fit]"}
{"smiles": "O=C(NCc1ccccc1Cl)c1cc2c(s1)-c1ccccc1SC2", "activity change, negative = inhibition": "inactive: -25% [at 46.1 µM]"}
{"smiles": "COCCNC(=O)C(=O)NCC(c1cccnc1)N1CCN(c2ccccc2OC)CC1", "note": "(stereo not drawn)", "Potency": "inconclusive: 15.8 µM [inhibitor, single point]"}
{"smiles": "O=C1C(Cl)=C(NCCc2ccccc2)C(=O)N1CCc1ccccc1", "Potency": "inconclusive: 4.47 µM [activator, single point]"}
{"smiles": "C[N+]12CCC(CC1)C(=C(c1ccccc1)c1ccccc1)C2", "Potency": "inconclusive: 32.6 µM [inhibitor, single point]"}
{"smiles": "COC(=O)c1cc(C)nc2c1C(=O)C(=O)C=C2N1CCOCC1", "Potency": "inconclusive: 2.82 µM [inhibitor, partial curve, poor fit]"}
{"smiles": "Cc1ccc(NC(=O)CSc2nnc(C)n3c2cc2sccc23)c(C)c1", "activity change, negative = inhibition": "inactive: 26.7% [at 46.1 µM]"}
{"smiles": "COc1ccc(-c2nc3c(Br)c(N)c(Br)cc3o2)cc1", "activity change, negative = inhibition": "inactive: -17%"}
{"smiles": "COc1cccc(NC(=O)CSc2nc3c([nH]c4ccccc43)c(=O)n2-c2ccccc2)c1", "Potency": "inconclusive: 14.1 µM [inhibitor, single point]"}
{"smiles": "CN(CC(=O)Nc1ccccc1Br)CC(=O)NC(c1ccccc1)c1ccccc1", "Potency": "inconclusive: 35.5 µM [inhibitor, single point]"}
{"smiles": "Cc1ccccc1-c1nnc(CN2CCN(c3cccc(C)c3C)CC2)o1", "activity change, negative = inhibition": "inactive: 21.9% [at 46.1 µM]"}
{"smiles": "CCN(CC)CCN1C(=O)c2oc3ccccc3c(=O)c2C1c1ccccc1", "note": "(stereo not drawn)", "activity change, negative = inhibition": "inactive: 5.8%"}
{"smiles": "Cc1cc(-n2c(C)nc3ccccc3c2=O)ccc1NC(=O)c1ccc(C)c([N+](=O)[O-])c1", "activity change, negative = inhibition": "inactive: -2.36% [at 46.1 µM]"}
{"smiles": "S=C(NCc1ccccn1)Nc1ccccc1Cl", "activity change, negative = inhibition": "inactive: 23.4%"}
{"smiles": "COc1cccc(N2CCN(C(=O)C3CCN(S(=O)(=O)c4cccs4)CC3)CC2)c1", "Potency": "inconclusive: 31.6 µM [inhibitor, partial curve, poor fit]"}
{"smiles": "Cc1ccc(NC(=O)C2CCN(S(=O)(=O)c3ccccc3)CC2)cc1", "Potency": "inconclusive: 17.8 µM [inhibitor, single point]"}
{"smiles": "Cc1ccc(C(=O)/C=C/c2cn(CC(O)CN3CCc4ccccc43)c3ccccc23)cc1", "note": "(stereo not drawn)", "Potency": "inconclusive: 35.5 µM [inhibitor, single point]"}
{"smiles": "CN(C)CC(=O)c1c[nH]c2ccccc12", "Potency": "inconclusive: 11.2 µM [activator, partial curve]"}
{"smiles": "O=C(CCc1ccccc1)NNc1ccc(F)cc1", "Potency": "inconclusive: 2.82 µM [inhibitor, full curve]"}
{"smiles": "COc1ccc(S(=O)(=O)N2CC3C4C=CC(C4)C3C2)cc1", "note": "(stereo not drawn)", "Potency": "inconclusive: 32.6 µM [inhibitor, single point]"}
{"smiles": "COc1ccc(OC)c(CNC(=O)c2cc3cc4ccc(OC)cc4nc3o2)c1", "activity change, negative = inhibition": "inactive: -15.4% [at 46.1 µM]"}
{"smiles": "O=C(COc1ccccc1)Nc1cccc(-c2ccc(N3CCOCC3)nn2)c1", "Potency": "inconclusive: 0.562 µM [activator, single point]"}
{"smiles": "Cc1cc(NC(=O)c2ccccc2Cl)ccc1NC(=O)c1ccccc1", "Potency": "inconclusive: 20 µM [inhibitor, single point]"}
{"smiles": "CCN(C(=O)COC(=O)c1ccc(Cl)c(S(=O)(=O)N2CCCCC2)c1)C1CCS(=O)(=O)C1", "note": "(stereo not drawn)", "Potency": "inconclusive: 0.891 µM [inhibitor, single point]"}
{"smiles": "Cc1nc2nc(SCc3c(F)cccc3Cl)nn2c(C)c1Cc1ccccc1", "Potency": "inconclusive: 6.31 µM [activator, full curve, poor fit]"}
{"smiles": "COc1ccc(CN(Cc2nc3ccccc3c(=O)[nH]2)C(=O)c2ccco2)cc1", "Potency": "inconclusive: 0.355 µM [inhibitor, full curve, poor fit]"}
{"smiles": "O=C(c1ccc2c(=O)n(CCc3ccccc3)c(=O)[nH]c2c1)N1CCN(c2ccccc2)CC1", "Potency": "inconclusive: 0.398 µM [inhibitor, partial curve, poor fit]"}
{"smiles": "COc1cc(C2c3c(-c4c(C)cc(C)cc4O)n[nH]c3C(=O)N2CCO)cc(OC)c1OC", "note": "(stereo not drawn)", "Potency": "inconclusive: 14.1 µM [inhibitor, partial curve, poor fit]"}
{"smiles": "C/C(N)=C(/C#N)C(=O)COc1ccc(Cl)cc1Cl", "Potency": "inconclusive: 12.6 µM [activator, single point]"}
{"smiles": "COc1ccc(CCNC(=O)CCNC(=O)c2ccccc2Cl)cc1", "activity change, negative = inhibition": "inactive: 6.74%"}
{"smiles": "O=S(=O)(NCCc1ccncc1)c1ccc(F)cc1", "Potency": "inconclusive: 1.26 µM [inhibitor, partial curve, poor fit]"}
{"smiles": "COc1ccc(-c2csc(NC(=O)C3CC(=O)N(Cc4ccco4)C3)n2)cc1", "note": "(stereo not drawn)", "Potency": "inconclusive: 35.5 µM [inhibitor, single point]"}
{"smiles": "CC(C)(C)c1ccc(C(=O)NCCC(=O)N2CCN(c3ncccn3)CC2)cc1", "activity change, negative = inhibition": "inactive: 6.25%"}
{"smiles": "CCOc1ccc2ncc(S(=O)(=O)c3ccc(C)cc3)c(N3CCC4(CC3)OCCO4)c2c1", "Potency": "inconclusive: 14.1 µM [inhibitor, partial curve, poor fit]"}
{"smiles": "COc1ccc(OCCSc2nc(C)c(Cc3ccccc3)c(=O)[nH]2)cc1", "activity change, negative = inhibition": "inactive: -13.4% [at 46.1 µM]"}
{"smiles": "Fc1ccc(CNC(=S)Nc2cccc(Cl)c2)cc1", "Potency": "inconclusive: 35.5 µM [inhibitor, single point]"}
{"smiles": "CN(Cc1cc(=O)n2ccsc2n1)c1ccccc1", "activity change, negative = inhibition": "inactive: 0.888%"}
{"smiles": "CC(=O)c1ccc(N2CCN(C(=O)c3nn(C)c4c3CS(=O)(=O)c3ccccc3-4)CC2)cc1", "Potency": "inconclusive: 35.5 µM [inhibitor, partial curve, poor fit]"}
{"smiles": "O=C(CN(Cc1ccccc1F)S(=O)(=O)c1ccc(Cl)cc1)NCCC1=CCCCC1", "Potency": "inconclusive: 29.1 µM [inhibitor, single point]"}
{"smiles": "CC1CN/C(=C\\C(=O)c2ccccc2)C(=O)N1", "note": "(stereo not drawn)", "Potency": "inconclusive: 2.24 µM [activator, partial curve, poor fit]"}
{"smiles": "O=C(c1ccc(COc2c(F)c(F)c(F)c(F)c2F)o1)N1CCN(Cc2ccc3c(c2)OCO3)CC1", "Potency": "inconclusive: 29.1 µM [inhibitor, single point]"}
{"smiles": "O=C(CNC(=O)c1ccco1)Nc1ccc2c(c1)OCCO2", "Potency": "inconclusive: 7.08 µM [inhibitor, partial curve, poor fit]"}
{"smiles": "COc1ccccc1C(=O)Nc1c2c(nn1-c1ccc([N+](=O)[O-])cc1)CS(=O)(=O)C2", "activity change, negative = inhibition": "inactive: 20.7% [at 46.1 µM]"}
{"smiles": "Cc1ccc(-c2nn(CC(=O)NC3CCCC3)c3c2cnc2ccc(F)cc23)cc1C", "Potency": "inconclusive: 11.2 µM [activator, single point]"}
{"smiles": "Cc1onc(-c2c(F)cccc2Cl)c1C(=O)Nc1nc2ccccc2[nH]1", "Potency": "inconclusive: 1.12 µM [activator, full curve, poor fit]"}
{"smiles": "Cc1ccc(Nc2nnc(SCC(=O)Nc3cccnc3Cl)s2)cc1C", "Potency": "inconclusive: 7.08 µM [inhibitor, partial curve, poor fit]"}
